# In PubChem BioAssay AID504861 (Broad Institute, 2011):
# About 290 (24%) of roughly 1,200 compounds were called active. Roughly 3% stayed inconclusive and do not appear here.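 How the source made its calls: active means compounds lowering cell viability signal with fitted half-maximal concentration at most ten times their highest tested concentration; inconclusive means flat fit with 30 to 70% signal loss, or poor fit; inactive means the rest.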 The entries are a selection whose mix differs from that of the whole data set. Potency and affinity values are given separately.
# Test: HEK293T cell viability reduction, dose response, cytotoxicity control for LMP1 NF-kB inhibitor project, CellTiter-Glo luminescence, cherry-picks (AID 504861)
# Conditions: CellTiter-Glo ATP luminescence, 48 h; at 26 µM (top of the series)
row,Compound,"activity change, negative = cytotoxicity"
1,Cc1cc(N)nc(=O)n1C1CC(O)C(CO)O1 (stereo unspecified),inactive: 7.04%
2,CC1S/C(=C(\C#N)C(=O)NCc2ccco2)N(Cc2ccco2)C1=O (stereo unspecified),inactive: 8.63%
3,COc1ccc(CN2C(=O)c3cccnc3C2Nc2cc(Cl)ccc2OC)cc1 (stereo unspecified),inactive: 8.26%
4,COc1ccc(C(=O)NCCN2CCOCC2)cc1[N+](=O)[O-],inactive: 13.2%
5,CN(Cc1ccccc1)c1nc(N)c([N+](=O)[O-])c(NCc2ccccc2)n1,inactive: -3.83%
6,NC(=O)c1sc2nccc(Nc3ccccc3)c2c1N,inactive: 2.65%
7,COc1ccc(CC(C)NCC(O)c2ccc(O)c(NC=O)c2)cc1 (stereo unspecified),inactive: 9.09%
8,COc1ccc(OC)c(NC(=O)COC(=O)COc2ccc(Nc3ccccc3)cc2)c1,inactive: 4.22%
9,CC(C)(C)C(=O)Nc1nnc(SCC(=O)Nc2ccc3c(c2)OCO3)s1,inactive: 2.56%
10,O=C1CCCN2N=C(SCC(=O)Nc3ccc(Br)cc3)SC2=N1,inactive: 2.42%
11,O=C(CN1C(=O)c2ccccc2S1(=O)=O)c1ccccc1,inactive: 16.5%
12,O=C(CCCOc1ccccc1)N1CCN(c2ccccc2)CC1,inactive: -1.04%
13,Cc1cc(C)n(C2CCCCC2OC(=O)c2ccccc2F)n1 (stereo unspecified),inactive: 7.27%
14,C[C@H]1C[C@H]2[C@@H]3CCC4=CC(=O)C=C[C@]4(C)[C@@]3(F)[C@@H](O)C[C@]2(C)[C@@]1(O)C(=O)CO,inactive: 6.92%
15,Cc1nc2sc(-c3ccccc3)cc2c(=O)n1N,inactive: -3.13%
16,CC1=C(CC(=O)O)c2cc(F)ccc2C1=Cc1ccc(S(C)(=O)=O)cc1,inactive: 0.041%
17,CN(C)S(=O)(=O)c1ccc(Cl)c(C(=O)NCCNC(=O)c2cc(S(=O)(=O)N(C)C)ccc2Cl)c1,inactive: 2.63%
18,O=C(c1sc2cc([N+](=O)[O-])ccc2c1Cl)N1CCOCC1,inactive: 8.16%
19,O=C(CCCN1C(=O)[C@H]2CC=CC[C@H]2C1=O)NCc1nc(-c2ccc(Cl)cc2)no1,inactive: 0.166%
20,O=c1c2cnn(-c3ccccc3)c2nc(-c2cccs2)n1-c1ccc(Cl)cc1,inactive: -3.75%
21,O=C(Cc1ccc(Cl)cc1)NCC(=O)N1CCCCC1,inactive: 6.35%
22,COc1ccc(NC(=O)CCS(=O)(=O)c2ccc3c(c2)CCN3C(C)=O)cc1,inactive: 1.29%
23,CCOC(=O)Oc1c(OC)cc(C(=O)O[C@@H]2C[C@@H]3CN4CCc5c([nH]c6cc(OC)ccc56)[C@H]4C[C@@H]3[C@H](C(=O)OC)[C@H]2OC)cc1OC,inactive: -5.9%

row,Compound,"activity change, negative = cytotoxicity"
1,Cc1cccc(Cn2cc(SCC(=O)Nc3nccs3)c3ccccc32)c1,inactive: 8.72%
2,Cc1nnc(NC(=O)CSc2nnc(Cc3cccn3C)n2CCc2ccccc2)s1,inactive: 3.33%
3,CN1CCN(C(=O)C2=C[C@@H](C(C)(C)C)C[C@@H](OCc3ccc(CO)cc3)O2)CC1,inactive: 3.73%
4,CCn1c(NC(=O)c2ccc(C)cc2)c2ccccc2nc1=O,inactive: 1.77%
5,O=C(O)CN1C(=O)/C(=C\c2ccccc2OCc2ccc(Cl)cc2Cl)SC1=S,inactive: 5.71%
6,COc1ccc(C(CNC(=O)Nc2ccccc2)N2CCN(C)CC2)cc1 (stereo unspecified),inactive: 5.13%
7,CN(C1CCCCC1)S(=O)(=O)c1ccc(C(=O)N2CCN(c3nc4ccccc4s3)CC2)cc1,inactive: 3.38%
8,CC1(C)Cc2nc3sc4c(SCC(=O)O)ncnc4c3cc2CO1,inactive: 5.57%
9,O=Cc1cc(OCc2ccccc2)ccc1[B-](F)(F)F,inactive: 17.3%
10,CC(C)CC1C(=O)N(Cc2cn(CC3CCCCC3)nn2)CCS(=O)(=O)N1Cc1ccc(-c2ccc(F)nc2)cc1 (stereo unspecified),inactive: -1.62%
11,NC(=O)c1sc2nc3c(c(-c4ccccc4)c2c1N)CCC3,inactive: 4.21%
12,CC(=O)Oc1ccc(C(=O)Nc2cccnc2)cc1,inactive: 1.74%
13,CCCCOc1ccc2c(c1)/C(=C(\C(Cl)=C(Cl)Cl)[N+](=O)[O-])N2,inactive: 2.79%
14,O=C(NCC1CCOCC1)c1ccc(OC2CCN(Cc3ccccn3)CC2)cc1,inactive: 10.3%
15,Cc1ccc(-n2ccc(=O)c(C(=O)Nc3ccc(S(=O)(=O)N4CCOCC4)cc3)n2)cc1,inactive: 0.296%
16,NC(=O)N/N=C/c1ccc(N2CCOCC2)s1,inactive: 10.5%
17,N=C1S/C(=C\c2ccccc2)C(=O)N1c1ccc(F)cc1,inactive: 21%
18,O=C(c1cccs1)N1CC=C(c2ccccc2)CC1,inactive: 2.88%
19,COc1ccc(N2C(=O)C(=O)/C(=C(/O)c3ccc(C)cc3)C2c2cccnc2)cc1 (stereo unspecified),inactive: 12.4%
20,O=C(Nc1cccc(Cl)c1)Nc1cccc(C(=O)O)c1,inactive: 4.19%
21,CCOC(=O)OC(C)OC(=O)[C@@H]1N2C(=O)[C@@H](NC(=O)[C@H](N)c3ccccc3)[C@H]2SC1(C)C (stereo partly specified),inactive: -12.7%
22,CC1=CC(=NOC(=O)/C=C/c2ccccc2)C=C(C)C1=O,inactive: 1.24%
23,CCCCCC(=O)N1C[C@@H](O)[C@H](n2cc(C3CC3)nn2)C[C@@H]1c1ccc(C)cc1,inactive: 3.84%

row,Compound,"activity change, negative = cytotoxicity"
1,CCOc1ccccc1NC(=O)Cn1c(=O)sc2ccccc21,inactive: 3.03%
2,C=CCN=C1NN=C(c2cc(C)n(CCOC)c2C)CS1,inactive: 14%
3,Cn1cc(S(=O)(=O)N2CCN(C(=O)c3ccco3)CC2)c(=O)n(C)c1=O,inactive: 5.9%
4,Cc1ccc(C(=O)NCC(=O)N(C)Cc2cccc(F)c2)s1,inactive: 9.7%
5,Cc1nc(Nc2nc3ccccc3o2)nc2c1CCC2,inactive: -4.54%
6,COc1cc(NC(=S)N2CCN(CCO)CC2)cc(OC)c1,inactive: 3.8%
7,CCOC(=O)c1cnc(-n2nc(C)cc2C)nc1NNc1cc(C)nc(-c2ccccc2)n1,inactive: 16.4%
8,CCNc1nc(CN2CCOCC2)nc2sc3c(c12)CCC3,inactive: 5.01%
9,Cc1cc(NC(=O)c2ccc(C)s2)n(-c2nc3ccccc3[nH]2)n1,inactive: 0.765%
10,N#CCN(N=Nc1ccccc1)c1ccccc1,inactive: -6.12%
11,CCOC(=O)c1cn2nc(N3CCCC3)ccc2n1,inactive: -3.72%
12,CC(CN1CCCCC1)OC(=O)c1ccc2c(c1)OCO2 (stereo unspecified),inactive: 16%
13,CC1=C(C)C(OCCCl)N(c2cc(O)c(Cl)cc2F)C1=O (stereo unspecified),inactive: 11.4%
14,COc1cccc(C(=O)Nc2nc3ccccc3[nH]2)c1,inactive: -10.2%
15,COc1cc(C(c2sc3nc(C)nn3c2O)N2CCc3ccccc3C2)cc(OC)c1OC (stereo unspecified),inactive: 7.79%
16,O=C(OCc1nc2ccccc2s1)[C@@H]1CCCN1S(=O)(=O)c1ccccc1F,inactive: 12.6%
17,Oc1[nH]c2ccccc2c1N=Nc1c(F)c(F)c(Cl)c(F)c1F,inactive: 2.12%
18,CSc1nc(C)cc(C)c1C#N,inactive: 3.54%
19,Cc1onc(-c2c(Cl)cccc2Cl)c1C(=O)N[C@@H]1C(=O)N2[C@@H]1SC(C)(C)[C@@H]2C(=O)O,inactive: 11.4%
20,COc1ccc([C@H]2N[C@]3(CCCN(Cc4ccco4)C3=O)[C@H]3C(=O)N(Cc4ccccc4)C(=O)[C@@H]23)cc1,inactive: 3.06%
21,COc1ccc(OC)c(NC(=O)COc2coc(CN3CCc4ccccc43)cc2=O)c1,inactive: 5.75%
22,COc1cc(/C=C2/SC(=S)N(Cc3ccccc3)C2=O)ccc1OCC(=O)O,inactive: 1.52%
23,O=C(c1ccccc1Br)N1CCN(Cc2ccc3c(c2)OCO3)CC1,inactive: 3.51%

# Sorted by heavy-atom count (low to high): 22 of the compounds above.
row,Compound,"activity change, negative = cytotoxicity"
18,CSc1nc(C)cc(C)c1C#N,inactive: 3.54%
1,Cc1cc(N)nc(=O)n1C1CC(O)C(CO)O1 (stereo unspecified),inactive: 7.04%
10,N#CCN(N=Nc1ccccc1)c1ccccc1,inactive: -6.12%
12,CC(=O)Oc1ccc(C(=O)Nc2cccnc2)cc1,inactive: 1.74%
5,Cc1nc(Nc2nc3ccccc3o2)nc2c1CCC2,inactive: -4.54%
12,CC(CN1CCCCC1)OC(=O)c1ccc2c(c1)OCO2 (stereo unspecified),inactive: 16%
8,CCNc1nc(CN2CCOCC2)nc2sc3c(c12)CCC3,inactive: 5.01%
13,Cc1cc(C)n(C2CCCCC2OC(=O)c2ccccc2F)n1 (stereo unspecified),inactive: 7.27%
9,Cc1cc(NC(=O)c2ccc(C)s2)n(-c2nc3ccccc3[nH]2)n1,inactive: 0.765%
7,COc1ccc(CC(C)NCC(O)c2ccc(O)c(NC=O)c2)cc1 (stereo unspecified),inactive: 9.09%
9,CC(C)(C)C(=O)Nc1nnc(SCC(=O)Nc2ccc3c(c2)OCO3)s1,inactive: 2.56%
5,CN(Cc1ccccc1)c1nc(N)c([N+](=O)[O-])c(NCc2ccccc2)n1,inactive: -3.83%
5,O=C(O)CN1C(=O)/C(=C\c2ccccc2OCc2ccc(Cl)cc2Cl)SC1=S,inactive: 5.71%
23,CCCCCC(=O)N1C[C@@H](O)[C@H](n2cc(C3CC3)nn2)C[C@@H]1c1ccc(C)cc1,inactive: 3.84%
19,Cc1onc(-c2c(Cl)cccc2Cl)c1C(=O)N[C@@H]1C(=O)N2[C@@H]1SC(C)(C)[C@@H]2C(=O)O,inactive: 11.4%
2,Cc1nnc(NC(=O)CSc2nnc(Cc3cccn3C)n2CCc2ccccc2)s1,inactive: 3.33%
21,COc1ccc(OC)c(NC(=O)COc2coc(CN3CCc4ccccc43)cc2=O)c1,inactive: 5.75%
15,COc1cc(C(c2sc3nc(C)nn3c2O)N2CCc3ccccc3C2)cc(OC)c1OC (stereo unspecified),inactive: 7.79%
7,CN(C1CCCCC1)S(=O)(=O)c1ccc(C(=O)N2CCN(c3nc4ccccc4s3)CC2)cc1,inactive: 3.38%
20,COc1ccc([C@H]2N[C@]3(CCCN(Cc4ccco4)C3=O)[C@H]3C(=O)N(Cc4ccccc4)C(=O)[C@@H]23)cc1,inactive: 3.06%
10,CC(C)CC1C(=O)N(Cc2cn(CC3CCCCC3)nn2)CCS(=O)(=O)N1Cc1ccc(-c2ccc(F)nc2)cc1 (stereo unspecified),inactive: -1.62%
23,CCOC(=O)Oc1c(OC)cc(C(=O)O[C@@H]2C[C@@H]3CN4CCc5c([nH]c6cc(OC)ccc56)[C@H]4C[C@@H]3[C@H](C(=O)OC)[C@H]2OC)cc1OC,inactive: -5.9%

# Continuation.

row,Compound,"activity change, negative = cytotoxicity"
1,O=C(Nc1nnc(-c2cccs2)o1)c1cccc(C(F)(F)F)c1,inactive: 8.43%
2,COc1ccc(C(=O)NCCNc2nc3cc(C)c(C)cc3cc2C)cc1,inactive: 1.27%
3,O=C(CCNc1cccc(F)c1)c1cc2ccccc2o1,inactive: 5.13%
4,CCC(C)[C@H](NC(=O)NCc1cccnc1)C(=O)OC (stereo partly specified),inactive: -1.02%
5,CCc1ccccc1NC(=O)COC(=O)c1c(C)nsc1NC,inactive: 0.078%
6,Cc1ccc(S(=O)(=O)N2CCN(C(=O)COC(=O)COc3ccc(Cl)cc3)CC2)c(C)c1,inactive: -2.35%
7,CCOC(=O)C1=C(C)N(C)C(=O)NC1c1ccccc1OC (stereo unspecified),inactive: -1.28%
8,CCc1c(C)nc2cc(-c3ccc(OC)c(OC)c3)nn2c1NCC1CC1,inactive: -6.74%
9,COC(=O)C1=C(C)N(CCCC(=O)O)C(=O)NC1c1cccc(Cl)c1Cl (stereo unspecified),inactive: 0.475%
10,Cc1cc(=O)[nH]c(=S)[nH]1,inactive: 6.02%
11,CCCc1nc(SCC(=O)NCc2ccco2)c2c(=O)n(C)c(=O)n(C)c2n1,inactive: 17.5%
12,COCCn1c(SCC(=O)N2CCc3ccccc32)nc2c(c1=O)SC(C)C2 (stereo unspecified),inactive: -3.77%
13,CC(=O)NC(CCS(C)(=O)=O)C(=O)Nc1ccc(Cl)c(Cl)c1 (stereo unspecified),inactive: 13.4%
14,COc1ccc(C(c2sc3nc(C)nn3c2O)N2CCC(C(N)=O)CC2)cc1OC (stereo unspecified),inactive: 4.88%
15,O=C(CN1C(=O)c2ccccc2S1(=O)=O)c1ccccc1F,inactive: 1.26%
16,Cc1ccc(S(=O)(=O)N2CCC[C@H]2C(=O)Nc2ccccc2C)cc1,inactive: 6.33%
17,CC(C)(C)c1ccc(C(=O)N2CCC(=O)N(C(CO)Cc3ccccc3)CC2)cc1 (stereo unspecified),inactive: 1.74%
18,Oc1cccc(/C=N/NC(=S)NCCN2CCOCC2)c1O,inactive: -11%
19,O=Cc1ccc(-c2cccs2)s1,inactive: 2.5%
20,CN1C(=O)C(CC(=O)NC2CCCCC2)SC1=Nc1ccccc1 (stereo unspecified),inactive: 1.42%
21,COc1cc(C2CC(=O)N3CN(Cc4ccccc4)CSC3=C2C#N)ccc1OCc1ccccc1 (stereo unspecified),inactive: 3.25%
22,Cc1ccc(NC(=S)N=Nc2c(O)n(C)c3ccc(S(=O)(=O)N4CCOCC4)cc23)cc1,inactive: 7.26%
